# According to the supplement of paper PMC10689618:
# Counter-ions that a name gives are not always drawn. Some of the results follow. Single values are uncertain, as repeats are few or missing.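 Labelled rat cortical synaptosomes were engulfed by primary human fetal astrocytes. Engulfment equaled a red/green ratio, corrected for calcein live-cell signal and normalized to the plate median. Compounds were toxic when calcein dropped over 30%, and reduced phagocytosis when below 70% of the median above 5 µM.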
# Test system: Human fetal astrocytes
# Assay: synaptosome phagocytosis (pHrodo/calcein intensity ratio) relative to plate median of data wells; higher = more phagocytosis
# Conditions: 2.78 µM; 24 h
row,Structure (SMILES),synaptosome phagocytosis
1,CN(C(=O)CCCOc1ccc2[nH]c(=O)ccc2c1)C1CCCCC1 [Cilostamide],73.2%
2,Oc1ncnc2[nH]ncc12 [Allopurinol],130%
3,N=C(N)c1ccccc1 [Benzamidine hydrochloride],114%
4,COc1ccc(CCN(C)CCCC(C#N)(c2cc(OC)c(OC)c(OC)c2)C(C)C)cc1OC (racemic) [(±)-Methoxyverapamil hydrochloride],81.4%
5,O=[N+]([O-])c1cc2nc(O)c(O)nc2cc1[N+](=O)[O-],123%
6,Nc1ncnc2c1nc(Br)n2C1OC2COP(=O)(O)O[C@@H]2C1O (stereo partly drawn) [8-Bromo-cAMP sodium],132%
7,CCOC(=O)C1=C(C)NC(C)=C(C(=O)OC)C1c1cccc([N+](=O)[O-])c1 (stereo not drawn) [Nitrendipine],120%
8,CC1(NC(=O)CBr)CCC(C(C)(C)NCC(O)COc2cccc3[nH]ccc23)CC1 (racemic) [(±)-Pindobind],83%
9,COc1ccc2c(c1)c(CC(=O)N1CCOCC1)c(C)n2C(=O)c1ccc(Cl)cc1 [Indomethacin morpholinylamide],104%
10,CO/N=C(\C(=O)N[C@@H]1C(=O)N2C(C(=O)O)=C(COC(C)=O)CS[C@H]12)c1csc(N)n1 [Cefotaxime sodium],104%
11,COc1cc(NS(C)(=O)=O)ccc1Nc1c2ccccc2nc2ccccc12 [Amsacrine hydrochloride],102%
12,OC(CN1CCC(Cc2ccc(F)cc2)CC1)c1ccc(Cl)cc1 (stereo not drawn) [Eliprodil],67.2%
13,CC(C)NC[C@@H](O)COc1ccc(CC(N)=O)cc1 [R(+)-Atenolol],112%
14,CNC(=O)c1cc2c(cn1)[nH]c1ccccc12 [N-Methyl-beta-carboline-3-carboxamide],118%
15,CN1CCC[C@@H]1c1cccnc1.Cc1ccc(C(=O)O[C@H](C(=O)O)[C@@H](OC(=O)c2ccc(C)cc2)C(=O)O)cc1 [(+)-Nicotine (+)-di-p-toluoyl tartrate],135%
16,"O=C(O)c1cc(=O)c2c(Cl)cc(Cl)cc2[nH]1 [5,7-Dichlorokynurenic acid]",92.6%
17,CNC(=O)[C@H]1O[C@@H](n2cnc3c(NCc4cccc(I)c4)ncnc32)[C@H](O)[C@@H]1O,108%
18,Cn1ccc2cc3c(cc21)CCN3C(=O)Nc1cccnc1,91.6%
19,CC[C@H](NC(=O)c1c(C)c(-c2ccccc2)nc2ccccc12)c1ccccc1,105%
20,Oc1cc2c(c(Cl)c1O)CCNCC2c1ccccc1 (racemic) [(±)-6-Chloro-PB hydrobromide],115%
21,CCOC(=O)c1cnc2c(cnn2CC)c1NN=C(C)C [Etazolate hydrochloride],80.1%
22,CC(C)=CCC/C(C)=C/CC/C(C)=C/CSc1ccccc1C(=O)O [Farnesylthiosalicylic acid],110%
23,CC(=O)NCCc1c[nH]c2ccc(O)cc12 [N-Acetyl-5-hydroxytryptamine],138%
24,O=c1[nH]c2cc(Cl)ccc2c(O)c1-c1cccc(Oc2ccccc2)c1,115%

# Same assay, conditions: 5.56 µM; 24 h
row,Structure (SMILES),synaptosome phagocytosis
1,O=[N+]([O-])c1cccc2c(Br)[nH]nc12 [3-Bromo-7-nitroindazole],102%
2,CCC(C)N(C)C(=O)c1cc2ccccc2c(-c2ccccc2Cl)n1 (stereo not drawn),89.5%
3,OC(CN1CCN(c2cccc(Cl)c2)CC1)C(c1ccccc1)c1ccccc1 (stereo not drawn),103%
4,CSC(=N)N [S-Methylisothiourea hemisulfate],128%
5,Cc1ccccc1N1C(=O)c2cc(S(N)(=O)=O)c(Cl)cc2NC1C (stereo not drawn) [Metolazone],126%
6,CC(C)(C)NCC(O)c1ccc(O)c(CO)c1 (stereo not drawn) [Albuterol hemisulfate],94.1%
7,C[C@]12CC[C@@H]3c4ccc(O)cc4CC[C@H]3[C@@H]1CCC2=O [Estrone],105%
8,Nc1nc2[nH]c(=O)cnc2c(=O)[nH]1 [Isoxanthopterin],133%
9,CC[N+](CC)(CC)CC [Tetraethylammonium chloride],84.6%
10,O=C(CCCN1CC=C(n2c(=O)[nH]c3ccccc32)CC1)c1ccc(F)cc1 [Droperidol],64.7%
11,CCn1c(=O)[nH]c2cc(Cl)c(Cl)cc21,110%
12,C=C[C@H]1CN2CC[C@H]1C[C@H]2[C@H](O)c1ccnc2ccc(OC)cc12 [Quinine sulfate],93.2%
13,CC(C)C(=O)Nc1ccc([N+](=O)[O-])c(C(F)(F)F)c1 [Flutamide],107%
14,NCCNC(=O)c1ccc(Cl)cc1 [Ro 16-6491 hydrochloride],112%
15,Cn1c(=O)c2[nH]c(-c3ccc(S(=O)(=O)O)cc3)nc2n(C)c1=O [8-(p-Sulfophenyl)theophylline],121%
16,CN(C(=O)CCCOc1ccc2[nH]c(=O)ccc2c1)C1CCCCC1 [Cilostamide],99.5%
17,Oc1ncnc2[nH]ncc12 [Allopurinol],95.2%
18,N=C(N)c1ccccc1 [Benzamidine hydrochloride],122%
19,COc1ccc(CCN(C)CCCC(C#N)(c2cc(OC)c(OC)c(OC)c2)C(C)C)cc1OC (racemic) [(±)-Methoxyverapamil hydrochloride],86.5%
20,O=[N+]([O-])c1cc2nc(O)c(O)nc2cc1[N+](=O)[O-],104%

row,Structure (SMILES),synaptosome phagocytosis
1,Nc1ncnc2c1nc(Br)n2C1OC2COP(=O)(O)O[C@@H]2C1O (stereo partly drawn) [8-Bromo-cAMP sodium],86.2%
2,CCOC(=O)C1=C(C)NC(C)=C(C(=O)OC)C1c1cccc([N+](=O)[O-])c1 (stereo not drawn) [Nitrendipine],88.8%
3,CC1(NC(=O)CBr)CCC(C(C)(C)NCC(O)COc2cccc3[nH]ccc23)CC1 (racemic) [(±)-Pindobind],91.5%
4,COc1ccc2c(c1)c(CC(=O)N1CCOCC1)c(C)n2C(=O)c1ccc(Cl)cc1 [Indomethacin morpholinylamide],118%
5,CO/N=C(\C(=O)N[C@@H]1C(=O)N2C(C(=O)O)=C(COC(C)=O)CS[C@H]12)c1csc(N)n1 [Cefotaxime sodium],100%
6,COc1cc(NS(C)(=O)=O)ccc1Nc1c2ccccc2nc2ccccc12 [Amsacrine hydrochloride],72.8%
7,OC(CN1CCC(Cc2ccc(F)cc2)CC1)c1ccc(Cl)cc1 (stereo not drawn) [Eliprodil],98.4%
8,CC(C)NC[C@@H](O)COc1ccc(CC(N)=O)cc1 [R(+)-Atenolol],129%
9,CNC(=O)c1cc2c(cn1)[nH]c1ccccc12 [N-Methyl-beta-carboline-3-carboxamide],106%
10,CN1CCC[C@@H]1c1cccnc1.Cc1ccc(C(=O)O[C@H](C(=O)O)[C@@H](OC(=O)c2ccc(C)cc2)C(=O)O)cc1 [(+)-Nicotine (+)-di-p-toluoyl tartrate],107%
11,"O=C(O)c1cc(=O)c2c(Cl)cc(Cl)cc2[nH]1 [5,7-Dichlorokynurenic acid]",90.7%
12,CNC(=O)[C@H]1O[C@@H](n2cnc3c(NCc4cccc(I)c4)ncnc32)[C@H](O)[C@@H]1O,113%
13,Cn1ccc2cc3c(cc21)CCN3C(=O)Nc1cccnc1,87.1%
14,CC[C@H](NC(=O)c1c(C)c(-c2ccccc2)nc2ccccc12)c1ccccc1,92.5%
15,Oc1cc2c(c(Cl)c1O)CCNCC2c1ccccc1 (racemic) [(±)-6-Chloro-PB hydrobromide],101%
16,CCOC(=O)c1cnc2c(cnn2CC)c1NN=C(C)C [Etazolate hydrochloride],103%
17,CC(C)=CCC/C(C)=C/CC/C(C)=C/CSc1ccccc1C(=O)O [Farnesylthiosalicylic acid],105%
18,CC(=O)NCCc1c[nH]c2ccc(O)cc12 [N-Acetyl-5-hydroxytryptamine],102%
19,O=c1[nH]c2cc(Cl)ccc2c(O)c1-c1cccc(Oc2ccccc2)c1,113%
